Measured values as given in the supplement of paper PMC10849652.
The other results are listed elsewhere or left out.

By UniProt entry, the sequences of proteins in these tests, tags left out. Where a name states a change or a piece, a line headed by the entry shows the natural chain unless it says otherwise.
UniProt P20226, whole entry, looked up: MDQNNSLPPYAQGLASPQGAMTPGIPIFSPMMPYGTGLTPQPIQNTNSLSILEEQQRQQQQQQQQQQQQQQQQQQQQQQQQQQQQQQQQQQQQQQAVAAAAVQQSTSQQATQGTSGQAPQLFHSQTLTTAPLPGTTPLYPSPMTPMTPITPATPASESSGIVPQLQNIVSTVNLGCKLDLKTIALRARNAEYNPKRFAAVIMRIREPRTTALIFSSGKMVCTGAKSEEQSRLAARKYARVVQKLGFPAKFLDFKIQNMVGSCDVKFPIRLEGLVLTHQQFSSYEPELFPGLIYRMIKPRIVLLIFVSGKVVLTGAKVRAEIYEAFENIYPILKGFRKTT
UniProt Q8IYN2: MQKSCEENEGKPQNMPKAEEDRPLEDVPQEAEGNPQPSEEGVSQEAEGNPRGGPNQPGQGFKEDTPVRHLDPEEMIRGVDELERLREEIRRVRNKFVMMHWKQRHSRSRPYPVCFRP
UniProt Q9BYX2: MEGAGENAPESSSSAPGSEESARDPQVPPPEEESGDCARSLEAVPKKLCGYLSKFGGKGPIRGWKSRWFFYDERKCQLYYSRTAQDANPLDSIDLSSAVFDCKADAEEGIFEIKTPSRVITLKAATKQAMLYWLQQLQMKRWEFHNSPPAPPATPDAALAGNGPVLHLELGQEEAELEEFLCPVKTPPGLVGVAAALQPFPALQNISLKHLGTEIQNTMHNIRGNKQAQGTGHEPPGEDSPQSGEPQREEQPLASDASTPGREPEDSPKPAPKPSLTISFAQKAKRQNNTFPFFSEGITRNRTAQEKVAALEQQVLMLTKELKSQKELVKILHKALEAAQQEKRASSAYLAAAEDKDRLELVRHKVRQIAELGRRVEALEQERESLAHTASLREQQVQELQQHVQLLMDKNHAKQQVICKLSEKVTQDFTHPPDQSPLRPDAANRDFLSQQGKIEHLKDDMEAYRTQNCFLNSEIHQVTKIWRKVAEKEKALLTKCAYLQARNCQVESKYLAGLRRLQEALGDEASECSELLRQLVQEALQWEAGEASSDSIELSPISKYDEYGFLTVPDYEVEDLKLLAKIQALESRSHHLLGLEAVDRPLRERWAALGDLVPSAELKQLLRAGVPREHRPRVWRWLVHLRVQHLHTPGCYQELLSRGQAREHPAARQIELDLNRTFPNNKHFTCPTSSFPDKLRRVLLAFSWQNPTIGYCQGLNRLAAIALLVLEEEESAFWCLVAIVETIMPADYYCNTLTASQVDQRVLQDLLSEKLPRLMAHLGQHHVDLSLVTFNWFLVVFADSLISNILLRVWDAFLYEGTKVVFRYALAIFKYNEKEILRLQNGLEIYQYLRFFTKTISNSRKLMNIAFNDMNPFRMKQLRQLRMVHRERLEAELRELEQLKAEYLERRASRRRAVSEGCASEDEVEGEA
UniProt Q9BU02: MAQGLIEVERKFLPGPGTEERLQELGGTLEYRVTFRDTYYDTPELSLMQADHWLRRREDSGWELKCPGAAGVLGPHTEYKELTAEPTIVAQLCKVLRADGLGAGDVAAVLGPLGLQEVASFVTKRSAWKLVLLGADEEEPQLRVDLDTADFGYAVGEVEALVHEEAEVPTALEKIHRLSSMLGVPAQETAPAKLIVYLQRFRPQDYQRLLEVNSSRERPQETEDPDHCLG
UniProt Q9NUJ3: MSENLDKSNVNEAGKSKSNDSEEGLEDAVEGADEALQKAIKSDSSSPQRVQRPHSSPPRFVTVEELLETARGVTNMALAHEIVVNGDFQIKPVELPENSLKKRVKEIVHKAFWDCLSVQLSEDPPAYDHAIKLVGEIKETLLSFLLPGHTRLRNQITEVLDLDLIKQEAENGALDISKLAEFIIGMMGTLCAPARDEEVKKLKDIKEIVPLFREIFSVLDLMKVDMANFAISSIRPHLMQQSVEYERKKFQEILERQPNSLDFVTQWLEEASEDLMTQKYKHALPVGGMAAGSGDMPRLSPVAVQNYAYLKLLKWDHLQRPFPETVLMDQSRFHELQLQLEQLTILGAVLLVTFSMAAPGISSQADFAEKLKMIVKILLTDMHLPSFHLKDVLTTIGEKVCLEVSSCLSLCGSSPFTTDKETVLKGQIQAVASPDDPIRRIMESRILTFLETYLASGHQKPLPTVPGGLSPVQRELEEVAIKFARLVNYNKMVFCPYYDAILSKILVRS
UniProt Q13488, whole entry, looked up: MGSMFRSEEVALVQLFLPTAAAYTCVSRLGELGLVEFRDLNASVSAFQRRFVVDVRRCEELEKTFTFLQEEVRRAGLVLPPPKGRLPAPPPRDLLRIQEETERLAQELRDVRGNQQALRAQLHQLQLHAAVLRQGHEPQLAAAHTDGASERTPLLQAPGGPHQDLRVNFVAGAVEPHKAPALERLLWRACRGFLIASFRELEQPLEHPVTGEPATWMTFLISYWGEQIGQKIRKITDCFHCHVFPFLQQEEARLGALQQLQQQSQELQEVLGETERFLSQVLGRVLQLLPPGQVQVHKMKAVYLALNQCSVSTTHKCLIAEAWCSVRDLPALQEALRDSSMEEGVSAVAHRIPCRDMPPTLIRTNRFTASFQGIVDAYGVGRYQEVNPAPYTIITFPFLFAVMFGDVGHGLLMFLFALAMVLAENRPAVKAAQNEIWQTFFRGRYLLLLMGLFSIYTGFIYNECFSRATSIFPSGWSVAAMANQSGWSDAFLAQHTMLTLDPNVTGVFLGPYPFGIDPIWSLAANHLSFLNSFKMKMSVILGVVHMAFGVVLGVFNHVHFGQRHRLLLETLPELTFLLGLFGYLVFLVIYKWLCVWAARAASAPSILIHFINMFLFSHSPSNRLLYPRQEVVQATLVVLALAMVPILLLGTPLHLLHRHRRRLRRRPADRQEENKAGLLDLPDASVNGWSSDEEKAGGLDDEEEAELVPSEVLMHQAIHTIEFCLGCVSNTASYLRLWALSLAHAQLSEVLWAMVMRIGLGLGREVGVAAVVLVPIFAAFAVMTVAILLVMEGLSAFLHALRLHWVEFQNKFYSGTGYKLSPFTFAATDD
UniProt Q12800: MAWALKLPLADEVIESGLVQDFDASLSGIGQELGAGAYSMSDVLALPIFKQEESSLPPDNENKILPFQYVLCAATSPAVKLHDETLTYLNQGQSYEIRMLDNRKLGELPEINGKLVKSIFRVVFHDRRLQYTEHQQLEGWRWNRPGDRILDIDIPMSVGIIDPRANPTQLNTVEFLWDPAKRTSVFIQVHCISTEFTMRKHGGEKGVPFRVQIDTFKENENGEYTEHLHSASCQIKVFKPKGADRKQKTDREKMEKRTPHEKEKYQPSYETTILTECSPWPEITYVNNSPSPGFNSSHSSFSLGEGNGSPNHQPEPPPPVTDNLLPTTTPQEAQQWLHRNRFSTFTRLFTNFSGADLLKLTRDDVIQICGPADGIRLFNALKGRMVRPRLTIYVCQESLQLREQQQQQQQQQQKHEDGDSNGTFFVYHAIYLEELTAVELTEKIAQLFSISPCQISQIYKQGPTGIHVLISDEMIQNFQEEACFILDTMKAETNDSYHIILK
UniProt A6NFQ2: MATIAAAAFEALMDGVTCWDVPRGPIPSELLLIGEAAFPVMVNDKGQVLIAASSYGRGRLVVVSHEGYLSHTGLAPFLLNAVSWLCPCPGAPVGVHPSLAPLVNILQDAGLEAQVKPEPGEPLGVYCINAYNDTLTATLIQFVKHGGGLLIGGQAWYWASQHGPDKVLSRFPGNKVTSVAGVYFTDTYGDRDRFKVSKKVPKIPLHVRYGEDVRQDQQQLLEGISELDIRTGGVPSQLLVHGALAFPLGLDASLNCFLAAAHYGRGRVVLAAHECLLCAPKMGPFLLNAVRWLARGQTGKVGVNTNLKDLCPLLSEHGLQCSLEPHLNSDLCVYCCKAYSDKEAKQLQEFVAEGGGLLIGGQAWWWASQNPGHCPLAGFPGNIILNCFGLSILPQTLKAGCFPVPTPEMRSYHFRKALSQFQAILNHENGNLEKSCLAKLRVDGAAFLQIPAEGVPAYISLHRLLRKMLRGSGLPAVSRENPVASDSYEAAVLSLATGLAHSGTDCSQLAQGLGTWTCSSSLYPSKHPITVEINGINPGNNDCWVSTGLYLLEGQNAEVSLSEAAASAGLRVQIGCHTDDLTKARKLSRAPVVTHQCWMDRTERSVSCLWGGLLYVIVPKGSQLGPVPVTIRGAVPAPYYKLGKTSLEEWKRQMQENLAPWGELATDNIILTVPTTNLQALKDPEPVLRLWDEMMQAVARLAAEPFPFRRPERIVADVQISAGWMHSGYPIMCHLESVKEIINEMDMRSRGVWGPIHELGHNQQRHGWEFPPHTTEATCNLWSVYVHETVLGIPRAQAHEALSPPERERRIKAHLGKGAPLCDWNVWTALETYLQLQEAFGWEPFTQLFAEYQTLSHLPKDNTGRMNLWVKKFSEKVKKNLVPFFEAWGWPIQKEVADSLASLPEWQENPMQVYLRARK
UniProt Q96EI5: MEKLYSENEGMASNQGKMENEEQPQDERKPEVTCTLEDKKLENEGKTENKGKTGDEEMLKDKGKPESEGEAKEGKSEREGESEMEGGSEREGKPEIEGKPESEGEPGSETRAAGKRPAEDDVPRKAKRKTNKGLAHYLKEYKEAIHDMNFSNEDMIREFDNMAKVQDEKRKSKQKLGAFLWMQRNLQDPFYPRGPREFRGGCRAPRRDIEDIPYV

What follows are targets tested with O=C(O)c1ccc2c(c1)nc(Nc1cccc(Cl)c1)c1ccncc12 [silmitasertib] (assay: log2 fold change, soluble protein after heating vs DMSO (PISA); higher = thermal stabilisation; K562 cells, 10 uM, 30 min; active = over 0.2 and 3.5 SD of the protein, either way, in both replicates (recomputed)).
Procedure, shortened: (§1)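 Soluble protein was defined as the supernatant after 21,000xg for 90 min. It came from K562 cells at 2×10^6 cells/mL given 10 μM compound for 30 min, heated in aliquots for 3 min across 48°C-58°C, pooled, and extracted in PBS with 0.5% NP-40 at 4°C, and was quantified by TMTpro 16plex LC-MS/MS with equalised channel sums. Thermal stability against control samples, from duplicates, is reported as log2 fold change.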

log2 fold change, inactive:
TBP (UniProt P20226) 0.183, TC2N (UniProt Q8N9U0) -0.186, TCEAL8 (UniProt Q8IYN2) 0.155, TCF25 (UniProt Q9BQ70) -0.059, TBC1D2 (UniProt Q9BYX2) 0.26, TET2 (UniProt Q6N021) -0.102, THTPA (UniProt Q9BU02) 0.07, TGM2 (UniProt A2A299) 0.262, TDRD7 (UniProt Q8NHU6) 0.167, TDRD3 isoform 3 (UniProt Q9H7E2) 0.167, THAP9 (UniProt Q9H5L6) 0.049, TCP11L1 (UniProt Q9NUJ3) 0.059, TEX30 (UniProt Q5JUR7) 0.073

These targets were tested with O=C1NC(=O)C(c2cnc3ccccn23)=C1c1cn2c3c(cc(F)cc13)CN(C(=O)N1CCCCC1)CC2 in the same assay as above.
Procedure, shortened: as §1

log2 fold change, inactive:
TBP (UniProt P20226) -0.025, TENM4 (UniProt Q6N022) -0.019, THEMIS2 (UniProt Q5TEJ8) 0.152, TIFA (UniProt Q96CG3) -0.036, TFE3 (UniProt P19532) -0.136, TCF25 (UniProt Q9BQ70) -0.122, TBC1D2 (UniProt Q9BYX2) 0.058, TCIRG1 (UniProt Q13488) 0.111, TBC1D7 (UniProt Q9P0N9) 0.284, TFCP2 (UniProt Q12800) 0.163, TCOF1 isoform 3 (UniProt Q13428) 0.067, TCTN3 (UniProt Q6NUS6) 0.006, TDRD7 (UniProt Q8NHU6) 0.35, TDRD3 isoform 3 (UniProt Q9H7E2) 0.193, TCEAL9 (UniProt Q9UHQ7) -0.005, TCAF2 (UniProt A6NFQ2) 0.071, TCEAL4 isoform 2 (UniProt Q96EI5) -0.039, TCF20 (UniProt Q9UGU0) 0.138, TEX30 (UniProt Q5JUR7) -0.04

The targets below were run with c1cc(OCCN2CCCCC2)cc(-c2n[nH]c3ccc(-c4nnc[nH]4)cc23)c1 in the same assay as above.
Procedure, shortened: as §1

log2 fold change, inactive:
TBP (UniProt P20226) -0.041, TBC1D2 (UniProt Q9BYX2) -0.202, TCIRG1 (UniProt Q13488) 0.155, TFCP2 (UniProt Q12800) -0.143, TFAP4 (UniProt Q01664) 0.025, TCOF1 isoform 3 (UniProt Q13428) -0.146, TET2 (UniProt Q6N021) 0.06, TFIP11 (UniProt Q9UBB9) -0.166, THTPA (UniProt Q9BU02) -0.173, TLE3 (UniProt Q04726) 0.144, TDRD7 (UniProt Q8NHU6) -0.045, TCAF2 (UniProt A6NFQ2) -0.03, TCEAL4 isoform 2 (UniProt Q96EI5) 0.017, TCF3 isoform 2 (UniProt P15923) 0.014, TCP11L1 (UniProt Q9NUJ3) 0.229, TEX10 (UniProt Q9NXF1) -0.401

What follows are targets tested with c1cn2cc(-c3ccc4cn[nH]c4c3)nc(Nc3ccc(N4CCOCC4)cc3)c2n1 [entospletinib] in the same assay as above.
Procedure, shortened: as §1

log2 fold change, inactive:
TCIRG1 (UniProt Q13488) 0.089, TFCP2 (UniProt Q12800) 0.044, TFAP4 (UniProt Q01664) -0.101, TET2 (UniProt Q6N021) 0.138, TFIP11 (UniProt Q9UBB9) 0.114, THTPA (UniProt Q9BU02) -0.104, TLE3 (UniProt Q04726) -0.064, TDRD7 (UniProt Q8NHU6) -0.107, TCAF2 (UniProt A6NFQ2) 0.358, TCEAL4 isoform 2 (UniProt Q96EI5) -0.044, TCF3 isoform 2 (UniProt P15923) -0.223, TCP11L1 (UniProt Q9NUJ3) -0.057, TEX10 (UniProt Q9NXF1) 0.518
